Nile Red retention ratio vs DMSO data for two compounds are collected here from PubChem BioAssay AID588520 (NMMLSC, 2011).

Among all 1,700 compounds or so, about 65 (4%) were called active. No stated cut-off is given here; in the data, active means Nile Red retention ratio vs DMSO above about 190%; inactive means the rest. Most of the actives are listed elsewhere, so they are rarer here than in the full data.

The test has as its system Candida albicans drug resistance protein 2 (Cdr2) efflux pump, expressed in S. cerevisiae. The test is described as follows: Cdr2 pump blockade via Nile Red retention – S. cerevisiae AD/CaCDR2, flow cytometry, cherry pick 1, singleplex, confirmation (AID 588520).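 Further: higher ratio means more blocking of Cdr2 efflux of the dye.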 The note with it: at 10 µM, active compounds read high.
As to `CCN(CC)c1ccc([N+](=O)[O-])c2cccnc12`, the Nile Red retention ratio vs DMSO was inactive: 112%.
Regarding `O=[N+]([O-])c1cnc2ccc3ccccc3c2c1`, the Nile Red retention ratio vs DMSO was inactive: 98.1%.
